# Source: PubChem BioAssay AID602196 (INSERM, 2012)
# Screen: 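Modifiers of cisplatin sensitivity in A549 cells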
# System: human A549 lung cancer cells
# Reagents: siRNA pair against human genes
# Time to read-out: 48 h transfection before cisplatin; time from cisplatin to read-out not stated
# Treatment: cisplatin at a dose killing half of control-siRNA cells; exact dose and duration not given
# Measured: 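Cisplatin cell death as a shift from the 50% death seen with control siRNA; siRNAs toxic or growth-blocking alone scored 0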
# Reading the numbers: two-siRNA summed score (-2 to +2): higher = both siRNAs protect from cisplatin killing; -2 means both sensitise; mean protection from cisplatin (shift in death): higher = protection from cisplatin killing
# Call rule: 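siRNAs harmful alone (LDH or WST-1) get 0; others get +1 for less and -1 for more cisplatin killing; genes are active when the two siRNAs give the same sign, summing to ±2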
# Calls: active = both siRNAs shift cisplatin killing the same way; inactive = no consistent shift, or siRNA harmful alone
# This is a random part of about 23,000 reagents. In the full data, 455 (2%) were called active. 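Active includes both protection and sensitisation; some change values fall well beyond the stated -50 to +50 range.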 Further read-outs or replicates are left out here. Reagent sequences are not shown. Not stated in the record: the amount of reagent.
target,two-siRNA summed score (-2 to +2),mean protection from cisplatin (shift in death) (%),Call
LOC441050,0,6.5,inactive
CCDC14,0,-1.2,inactive
HSD17B3,-1,-13.4,inactive
RAB22A,0,2.9,inactive
TRIM10,0,3.5,inactive
LOC402598,0,7.4,inactive
RASSF8,0,-0.7,inactive
MYO19,0,-3.3,inactive
CCDC186,0,7.8,inactive
PRKAR2A,0,0.5,inactive
CD9,-1,-16,inactive
TIMELESS,-1,0,inactive
ESYT3,0,4.1,inactive
SYT5,0,5.2,inactive
MUC3A,0,11.5,inactive
NUBP1,0,3.2,inactive
DAZ3,0,6.2,inactive
KIR2DL3,1,11.5,inactive
ACSL3,2,17,active
FFAR3,0,1.2,inactive
LOC442074,1,7.4,inactive
LOC442747,1,11.8,inactive
LOC440030,0,9,inactive
CSTB,1,13.7,inactive
COPS8,-1,-6.2,inactive
CPLX1,0,-1.4,inactive
LOC390239,1,8.3,inactive
LZTS2,0,1,inactive
EFNA4,1,8.6,inactive
MXI1,-1,-13.9,inactive
MAP4K1,0,0.4,inactive
DBNDD2,0,9.7,inactive
TRIM72,0,6.1,inactive
TMEM121B,0,13.3,inactive
LRRC28,0,1.5,inactive
EPHB6,0,-14.2,inactive
SHKBP1,0,-2.6,inactive
SETDB2,1,25.2,inactive
SLC7A8,0,-16.6,inactive
RING1,0,11.4,inactive
CRB3,0,10.8,inactive
P2RX2,-1,-22.6,inactive
PRAM1,0,12.4,inactive
TNFSF9,0,6,inactive
AQP3,0,-7,inactive
POLK,0,-19,inactive
TLR4,-1,-18.5,inactive
COX5B,2,19.8,active
CABLES1,1,9.5,inactive
CZIB,0,-1.2,inactive
PARP15,0,3,inactive
F11R,0,-6,inactive
RASAL1,0,11.9,inactive
H2BC7,0,8.1,inactive
SULT1A1,0,2.6,inactive
LOC389345,0,8.7,inactive
CDC42EP4,0,5.8,inactive

Copied from the entries so far (4 entries):
target,two-siRNA summed score (-2 to +2),mean protection from cisplatin (shift in death) (%),Call
HSD17B3,-1,-13.4,inactive
RAB22A,0,2.9,inactive
TRIM10,0,3.5,inactive
LOC402598,0,7.4,inactive
